# Experimental data from US11629129B2, “Microbiocidal picolinamide derivatives” (SYNGENTA PARTICIPATIONS AG, priority 2018, dated 2023).
# Some of these results come from one statement about several compounds together.
# Test system: Magnaporthe grisea (Pyricularia oryzae)
# Assay type: in vivo
# Conditions: 200 ppm in the formulation; rice leaf segments cv. Ballila, inoculated 2 days after application, assessed 5 to 7 days after application; compared to untreated
row,Structure (SMILES),disease control
1,"COc1ccnc(C(=O)N[C@@H](C)C(=O)O[C@@H](C)c2ccc(-c3cc(C)ccc3C)cc2)c1O [I.p.001, [(1S)-1-[4-(2,5-dimethylphenyl)phenyl]ethyl] (2S)-2-[(3-hydroxy-4-methoxy-pyridine-2-carbonyl)amino] propanoate]",at least 80%
2,"COc1ccnc(C(=O)N[C@@H](C)C(=O)O[C@@H](C)c2ccc(-c3ccc(Br)cc3)cc2)c1OC(C)=O [I.v.019, [(1S)-1-[4-(4-bromophenyl)phenyl]ethyl] (2S)-2-[(3-acetoxy-4-methoxy-pyridine-2-carbonyl)amino] propanoate]",at least 80%
3,"COc1ccnc(C(=O)N[C@@H](C)C(=O)O[C@@H](C)c2ccc(Oc3cccc(C(F)(F)F)c3)cc2)c1O [I.ax.001, [(1S)-1-[4-[3-(trifluoromethyl)phenoxy]phenyl]ethyl] (2S)-2-[(3-hydroxy-4-methoxy-pyridine-2-carbonyl)amino] propanoate]",at least 80%
4,"COc1ccnc(C(=O)N[C@@H](C)C(=O)O[C@@H](C)c2ccc(Oc3ccc(Cl)cc3)cc2)c1O [I.av.001, [(1S)-1-[4-(4-chlorophenoxy)phenyl]ethyl] (2S)-2-[(3-hydroxy-4-methoxy-pyridine-2-carbonyl)amino] propanoate]",at least 80%
5,"CCc1ccccc1-c1ccc([C@H](C)OC(=O)[C@H](C)NC(=O)c2nccc(OC)c2O)cc1 [I.i.001, [(1S)-1-[4-(2-ethylphenyl)phenyl]ethyl] (2S)-2-[(3-hydroxy-4-methoxy-pyridine-2-carbonyl)amino] propanoate]",at least 80%
6,"COc1ccnc(C(=O)N[C@@H](C)C(=O)O[C@@H](C)c2ccc(-c3cccc(C)c3C)cc2)c1O [I.m.001, [(1S)-1-[4-(2,3-dimethylphenyl)phenyl]ethyl] (2S)-2-[(3-hydroxy-4-methoxy-pyridine-2-carbonyl)amino] propanoate]",at least 80%
